Results deposited as PubChem BioAssay AID504764 (Drosophila RNAi Screening Center, 2011)
The deposit covers about 22,000 reagents; shown is an unselected part of those that have a named target and a result. In the full data, 403 (1.9%) were called active. 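Unnormalised raw counts per well; ratio z-scores behind the hit calls and whether each hit raises or lowers signal are not deposited.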 A plus sign joins genes that one reagent is predicted to hit. Not given: the amount of reagent.

- Screen: 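Genome-wide screen for regulators of Notch-driven gene expression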 (primary screen)
- Cells: Drosophila Kc167 cells
- Reagents: long dsRNA against Drosophila genes
- Timing: about 5 days (4 days dsRNA, then 24 h after transfection)
- Conditions: transfection of constitutively active membrane-tethered Notch lacking the extracellular domain, read 24 h later
- Read-out: 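Light from a Notch-responsive E(spl)m3 luciferase reporter under active Notch, with control-promoter and no-Notch reporter wells to normalise; raw counts from paired wells a and b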
- Scale: induced reporter light, run 1, well a and induced reporter light, run 1, well b: higher = more light from the Notch target reporter with active Notch; control promoter light, run 1, well a and control promoter light, run 1, well b: higher = more light from the viral control promoter (cell number, transfection, viability); uninduced reporter light, run 1, well a: higher = more light from the Notch target reporter without active Notch
- Active means: 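Wells with low control signal or poorly matching duplicates excluded; duplicates averaged; per source plate, z beyond ±2 for induced/control log2 ratio or beyond ±1.8 for induced/uninduced marks a hit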
- Calls: active = modifier hit (raised or lowered Notch signal); inactive = not a hit

CG13097 [DRSC02199]: induced reporter light, run 1, well a = 2.42e5; induced reporter light, run 1, well b = 2.23e5; control promoter light, run 1, well a = 2.20e5; control promoter light, run 1, well b = 2.28e5; uninduced reporter light, run 1, well a = 16060; Outcome = inactive
Xpc [DRSC07654]: induced reporter light, run 1, well a = 1.17e5; induced reporter light, run 1, well b = 97530; control promoter light, run 1, well a = 2.02e5; control promoter light, run 1, well b = 2.29e5; uninduced reporter light, run 1, well a = 10115; Outcome = inactive
Sox21a [DRSC10819]: induced reporter light, run 1, well a = 1.55e5; induced reporter light, run 1, well b = 1.62e5; control promoter light, run 1, well a = 1.92e5; control promoter light, run 1, well b = 1.71e5; uninduced reporter light, run 1, well a = 6915; Outcome = inactive
ckn [DRSC06149]: induced reporter light, run 1, well a = 1.11e5; induced reporter light, run 1, well b = 1.02e5; control promoter light, run 1, well a = 1.14e5; control promoter light, run 1, well b = 1.23e5; uninduced reporter light, run 1, well a = 7392; Outcome = inactive
CG1409 [DRSC17910]: induced reporter light, run 1, well a = 1.69e5; induced reporter light, run 1, well b = 1.83e5; control promoter light, run 1, well a = 3.84e5; control promoter light, run 1, well b = 2.99e5; uninduced reporter light, run 1, well a = 11285; Outcome = inactive
Pcp [DRSC03395]: induced reporter light, run 1, well a = 60650; induced reporter light, run 1, well b = 53830; control promoter light, run 1, well a = 63590; control promoter light, run 1, well b = 57830; uninduced reporter light, run 1, well a = 4245; Outcome = inactive
CG13223 [DRSC06344]: induced reporter light, run 1, well a = 1.08e5; induced reporter light, run 1, well b = 1.29e5; control promoter light, run 1, well a = 1.28e5; control promoter light, run 1, well b = 1.25e5; uninduced reporter light, run 1, well a = 11755; Outcome = inactive
CG12341 [DRSC06133]: induced reporter light, run 1, well a = 1.78e5; induced reporter light, run 1, well b = 1.29e5; control promoter light, run 1, well a = 1.94e5; control promoter light, run 1, well b = 1.99e5; uninduced reporter light, run 1, well a = 14075; Outcome = inactive
OS9 + Hf [DRSC03392]: induced reporter light, run 1, well a = 1.58e5; induced reporter light, run 1, well b = 1.60e5; control promoter light, run 1, well a = 1.27e5; control promoter light, run 1, well b = 1.38e5; uninduced reporter light, run 1, well a = 12395; Outcome = inactive
Mi-2 [DRSC11222]: induced reporter light, run 1, well a = 12790; induced reporter light, run 1, well b = 15750; control promoter light, run 1, well a = 10835; control promoter light, run 1, well b = 10265; uninduced reporter light, run 1, well a = 1380; Outcome = inactive
OXA1L [DRSC09672]: induced reporter light, run 1, well a = 68030; induced reporter light, run 1, well b = 71520; control promoter light, run 1, well a = 54575; control promoter light, run 1, well b = 16455; uninduced reporter light, run 1, well a = 5278; Outcome = inactive
S-Lap3 [DRSC10956]: induced reporter light, run 1, well a = 98185; induced reporter light, run 1, well b = 73520; control promoter light, run 1, well a = 74600; control promoter light, run 1, well b = 22325; uninduced reporter light, run 1, well a = 9665; Outcome = inactive

Only “induced reporter light, run 1, well b” (2 entries from above):
CG1409 [DRSC17910]: 1.83e5
Pcp [DRSC03395]: 53830
